Results: the supplement of paper PMC7661543
Differences between knockout arms are mostly noise.

Tested on: ZR-75-1
Experiment: relative cell number vs DMSO control (72 h) (% of DMSO); higher = less growth inhibition (more cells)
Description: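 QMAP-Seq: a pool of 5 breast cancer cell lines (ZR-75-1, SKBR3, HCC-38, MDA-MB-231, BT-20), each carrying 12 doxycycline-inducible Cas9 sgRNA perturbations (11 knockouts plus non-targeting sgNT), was treated with compounds for 72 h at four 10-fold doses (10 nM-10 uM or 1 nM-1 uM range). Barcodes were amplified and sequenced, and cell number was interpolated from 293T spike-in standard curves. The result is expressed as % of the median of DMSO wells. Two biological replicates.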

Cc1ccc(C(=O)N(CCCN)[C@@H](c2oc3cc(Cl)ccc3c(=O)c2Cc2ccccc2)C(C)C)cc1
Conditions | relative cell number
sgRNA knockout: sgATF3, 10 nM | 30.7
sgRNA knockout: sgATF3, 100 nM | 26.5
sgRNA knockout: sgATF3, 1000 nM | 40.6
sgRNA knockout: sgATF3, 10000 nM | 4.93
sgRNA knockout: sgATF4, 10 nM | 42.5
sgRNA knockout: sgATF4, 100 nM | 40.4
sgRNA knockout: sgATF4, 1000 nM | 36.4
sgRNA knockout: sgATF4, 10000 nM | 3.98
sgRNA knockout: sgATF6, 10 nM | 32.8
sgRNA knockout: sgATF6, 100 nM | 33.7
sgRNA knockout: sgATF6, 1000 nM | 32.5
sgRNA knockout: sgATF6, 10000 nM | 3.99
sgRNA knockout: sgATG7, 10 nM | 21.4
sgRNA knockout: sgATG7, 100 nM | 28.6
sgRNA knockout: sgATG7, 1000 nM | 41.8
sgRNA knockout: sgATG7, 10000 nM | 2.15
sgRNA knockout: sgERN1, 10 nM | 35.6
sgRNA knockout: sgERN1, 100 nM | 32.6
sgRNA knockout: sgERN1, 1000 nM | 39.2
sgRNA knockout: sgERN1, 10000 nM | 3.19
sgRNA knockout: sgHSF2, 10 nM | 30.4
sgRNA knockout: sgHSF2, 100 nM | 24.3
sgRNA knockout: sgHSF2, 1000 nM | 34.9
sgRNA knockout: sgHSF2, 10000 nM | 3
sgRNA knockout: sgNFE2L2, 10 nM | 25.8
sgRNA knockout: sgNFE2L2, 100 nM | 25.3
sgRNA knockout: sgNFE2L2, 1000 nM | 31.9
sgRNA knockout: sgNFE2L2, 10000 nM | 5.45
sgRNA knockout: sgSLC35F2, 10 nM | 16.5
sgRNA knockout: sgSLC35F2, 100 nM | 19.69
sgRNA knockout: sgSLC35F2, 1000 nM | 35.7
sgRNA knockout: sgSLC35F2, 10000 nM | 2.17
sgRNA knockout: sgXBP1, 10 nM | 30.4
sgRNA knockout: sgXBP1, 100 nM | 27.2
sgRNA knockout: sgXBP1, 1000 nM | 33.5
sgRNA knockout: sgXBP1, 10000 nM | 2.73

Cc1ccc(S(=O)(=O)OCC(=O)Nc2ccc(C(=O)O)c(O)c2)cc1
Conditions | relative cell number
sgRNA knockout: sgATF3, 10 nM | 93.7
sgRNA knockout: sgATF3, 100 nM | 117
sgRNA knockout: sgATF3, 1000 nM | 113
sgRNA knockout: sgATF3, 10000 nM | 77.9
sgRNA knockout: sgATF4, 10 nM | 133
sgRNA knockout: sgATF4, 100 nM | 93.8
sgRNA knockout: sgATF4, 1000 nM | 93.3
sgRNA knockout: sgATF4, 10000 nM | 91.6
sgRNA knockout: sgATF6, 10 nM | 111
sgRNA knockout: sgATF6, 100 nM | 92.5
sgRNA knockout: sgATF6, 1000 nM | 106
sgRNA knockout: sgATF6, 10000 nM | 78.9
sgRNA knockout: sgATG7, 10 nM | 97.4
sgRNA knockout: sgATG7, 100 nM | 159
sgRNA knockout: sgATG7, 1000 nM | 98.898
sgRNA knockout: sgATG7, 10000 nM | 101
sgRNA knockout: sgERN1, 10 nM | 129
sgRNA knockout: sgERN1, 100 nM | 103
sgRNA knockout: sgERN1, 1000 nM | 87.8
sgRNA knockout: sgERN1, 10000 nM | 88
sgRNA knockout: sgHSF2, 10 nM | 108
sgRNA knockout: sgHSF2, 100 nM | 110
sgRNA knockout: sgHSF2, 1000 nM | 86.7
sgRNA knockout: sgHSF2, 10000 nM | 98.2
sgRNA knockout: sgNFE2L2, 10 nM | 119
sgRNA knockout: sgNFE2L2, 100 nM | 110
sgRNA knockout: sgNFE2L2, 1000 nM | 79.1
sgRNA knockout: sgNFE2L2, 10000 nM | 93.1
sgRNA knockout: sgSLC35F2, 10 nM | 70.3
sgRNA knockout: sgSLC35F2, 100 nM | 81
sgRNA knockout: sgSLC35F2, 1000 nM | 92.8
sgRNA knockout: sgSLC35F2, 10000 nM | 80.2
sgRNA knockout: sgXBP1, 10 nM | 117
sgRNA knockout: sgXBP1, 100 nM | 106
sgRNA knockout: sgXBP1, 1000 nM | 85.5
sgRNA knockout: sgXBP1, 10000 nM | 93.1

Cc1nc(Nc2n[nH]c3c2CN(C(=O)N[C@H](CN(C)C)c2ccccc2)C3(C)C)c2sccc2n1
Conditions | relative cell number
sgRNA knockout: sgATF3, 10 nM | 45.1
sgRNA knockout: sgATF3, 100 nM | 43
sgRNA knockout: sgATF3, 1000 nM | 29
sgRNA knockout: sgATF3, 10000 nM | 3.33
sgRNA knockout: sgATF4, 10 nM | 49.4
sgRNA knockout: sgATF4, 100 nM | 49.8
sgRNA knockout: sgATF4, 1000 nM | 18.8
sgRNA knockout: sgATF4, 10000 nM | 6.48
sgRNA knockout: sgATF6, 10 nM | 54.3
sgRNA knockout: sgATF6, 100 nM | 35
sgRNA knockout: sgATF6, 1000 nM | 20.8
sgRNA knockout: sgATF6, 10000 nM | 4.03
sgRNA knockout: sgATG7, 10 nM | 49.8
sgRNA knockout: sgATG7, 100 nM | 35.3
sgRNA knockout: sgATG7, 1000 nM | 27.3
sgRNA knockout: sgATG7, 10000 nM | 3.31
sgRNA knockout: sgERN1, 10 nM | 61
sgRNA knockout: sgERN1, 100 nM | 52.3
sgRNA knockout: sgERN1, 1000 nM | 22.5
sgRNA knockout: sgERN1, 10000 nM | 4.53
sgRNA knockout: sgHSF2, 10 nM | 48.7
sgRNA knockout: sgHSF2, 100 nM | 45.3
sgRNA knockout: sgHSF2, 1000 nM | 23
sgRNA knockout: sgHSF2, 10000 nM | 2.51
sgRNA knockout: sgNFE2L2, 10 nM | 58.6
sgRNA knockout: sgNFE2L2, 100 nM | 30.9
sgRNA knockout: sgNFE2L2, 1000 nM | 23.3
sgRNA knockout: sgNFE2L2, 10000 nM | 4.04
sgRNA knockout: sgSLC35F2, 10 nM | 43.1
sgRNA knockout: sgSLC35F2, 100 nM | 31.1
sgRNA knockout: sgSLC35F2, 1000 nM | 15.7
sgRNA knockout: sgSLC35F2, 10000 nM | 1.72
sgRNA knockout: sgXBP1, 10 nM | 54.5
sgRNA knockout: sgXBP1, 100 nM | 43.8
sgRNA knockout: sgXBP1, 1000 nM | 24.7
sgRNA knockout: sgXBP1, 10000 nM | 2.79

C[C@]12CC[C@H](O)CC1=CC[C@@H]1[C@@H]2CC[C@]2(C)C(c3cccnc3)=CC[C@@H]12 [Abiraterone]
Conditions | relative cell number
sgRNA knockout: sgATF3, 1 nM | 123
sgRNA knockout: sgATF3, 10 nM | 105
sgRNA knockout: sgATF3, 100 nM | 109
sgRNA knockout: sgATF3, 1000 nM | 103
sgRNA knockout: sgATF4, 1 nM | 86
sgRNA knockout: sgATF4, 10 nM | 128
sgRNA knockout: sgATF4, 100 nM | 129
sgRNA knockout: sgATF4, 1000 nM | 115
sgRNA knockout: sgATF6, 1 nM | 107
sgRNA knockout: sgATF6, 10 nM | 137
sgRNA knockout: sgATF6, 100 nM | 90.5
sgRNA knockout: sgATF6, 1000 nM | 111
sgRNA knockout: sgATG7, 1 nM | 115
sgRNA knockout: sgATG7, 10 nM | 111
sgRNA knockout: sgATG7, 100 nM | 116
sgRNA knockout: sgATG7, 1000 nM | 97.8
sgRNA knockout: sgERN1, 1 nM | 110
sgRNA knockout: sgERN1, 10 nM | 105
sgRNA knockout: sgERN1, 100 nM | 101
sgRNA knockout: sgERN1, 1000 nM | 110
sgRNA knockout: sgHSF2, 1 nM | 97.45
sgRNA knockout: sgHSF2, 10 nM | 121
sgRNA knockout: sgHSF2, 100 nM | 101.5
sgRNA knockout: sgHSF2, 1000 nM | 101
sgRNA knockout: sgNFE2L2, 1 nM | 117
sgRNA knockout: sgNFE2L2, 10 nM | 101
sgRNA knockout: sgNFE2L2, 100 nM | 101
sgRNA knockout: sgNFE2L2, 1000 nM | 100
sgRNA knockout: sgSLC35F2, 1 nM | 102
sgRNA knockout: sgSLC35F2, 10 nM | 108
sgRNA knockout: sgSLC35F2, 100 nM | 61.8
sgRNA knockout: sgSLC35F2, 1000 nM | 95.8
sgRNA knockout: sgXBP1, 1 nM | 111.8
sgRNA knockout: sgXBP1, 10 nM | 103
sgRNA knockout: sgXBP1, 100 nM | 89.5
sgRNA knockout: sgXBP1, 1000 nM | 99.8
